Common to all, as to parameters: species or system human
The subject of series [1] is source genes of selected peptides. The series is described as follows: Expression profiling of source genes by in-house RNAseq, tumor vs normal tissues (target coverage). As to conditions: for Target coverage, over-expression of source gene, AML: AML (N = 7); for Target coverage, over-expression of source gene, AML / Target coverage, over-expression of source gene, BRCA / Target coverage, over-expression of source gene, CLL / Target coverage, over-expression of source gene, CRC / Target coverage, over-expression of source gene, GB / Target coverage, over-expression of source gene, HCC / Target coverage, over-expression of source gene, OC / Target coverage, over-expression of source gene, OSCAR / Target coverage, over-expression of source gene, PC / Target coverage, over-expression of source gene, RCC / Target coverage, over-expression of source gene, SCLC / Target coverage, over-expression of source gene, pNSCLC: in-house RNASeq; for Target coverage, over-expression of source gene, BRCA: BRCA (N = 10); for Target coverage, over-expression of source gene, CLL: CLL (N = 10); for Target coverage, over-expression of source gene, CRC: CRC (N = 20); for Target coverage, over-expression of source gene, GB: GB (N = 24); for Target coverage, over-expression of source gene, HCC: HCC (N = 15); for Target coverage, over-expression of source gene, OC: OC (N = 12); for Target coverage, over-expression of source gene, OSCAR: OSCAR (N = 11); for Target coverage, over-expression of source gene, PC: PC (N = 26); for Target coverage, over-expression of source gene, RCC: RCC (N = 10); for Target coverage, over-expression of source gene, SCLC: SCLC (N = 10); for Target coverage, over-expression of source gene, pNSCLC: pNSCLC (N = 11).

Series [2] deals with HLA-A*24 molecules of primary tumors. The series is described as follows: Identification and relative LC-MS quantitation of HLA-A*24 tumor-associated peptides presented on tissue samples (XPRESIDENT presentation profiles). The conditions noted are these: Table 9A: selected HLA-A*24-binding tumor-associated peptides; cancer entities on which the peptide was found presented.
In series [3] the test system is source genes of selected peptides. Description: Target coverage of source genes in tumor entities based on TCGA Research Network data. As to conditions: over-expressed = more than 2-fold above the highest 75% percentile of normal organs; for Target coverage, over-expression category of source gene, BLCA (N = 408): Bladder urothelial carcinoma; for Target coverage, over-expression category of source gene, CESC (N = 307): Cervical squamous cell carcinoma and endocervical adenocarcinoma; for Target coverage, over-expression category of source gene, HNSC (N = 521): Head and neck squamous cell carcinoma.

Setting [4] is: share of tumors with more than 1.5-fold higher expression than highest relevant normal tissue.
Where [5] appears, read: over-expression = more than 1.5-fold vs highest normal tissue.

For some of these results: Expression grades refer to the transcript from which the peptide derives; gene names, where given, were looked up from the sequence.

Regarding “354: peptide found in KIF18A (gene looked up) (VYNEQIRDLL; listed as Homo sapiens) [compound 354]”, in series [1] (setting [4]), the “Target coverage, over-expression of source gene, AML” value is given as “I (<19% over-expression = I)”; the “Target coverage, over-expression of source gene, BRCA” value is recorded as “I (<19% over-expression = I)”; the “Target coverage, over-expression of source gene, CLL” value is recorded as “I (<19% over-expression = I)”; the “Target coverage, over-expression of source gene, CRC” value is given as “I (<19% over-expression = I)”. Further, in series [1] (setting [4]), the “Target coverage, over-expression of source gene, GB” value is reported as “I (<19% over-expression = I)”; the “Target coverage, over-expression of source gene, HCC” value is reported as “I (<19% over-expression = I)”; the “Target coverage, over-expression of source gene, OC” value was “I (<19% over-expression = I)”; the “Target coverage, over-expression of source gene, OSCAR” value was “I (<19% over-expression = I)”. For the same substance, in series [1] (setting [4]), the “Target coverage, over-expression of source gene, PC” value was “I (<19% over-expression = I)”; the “Target coverage, over-expression of source gene, RCC” value is “I (<19% over-expression = I)”; the “Target coverage, over-expression of source gene, SCLC” value is “II (20-49% = II)”; the “Target coverage, over-expression of source gene, pNSCLC” value was “I (<19% over-expression = I)”. The “Target coverage for source genes of selected peptides, GBC_CCC (N = 10)” value in series [1] (gallbladder adenocarcinoma and cholangiocarcinoma, share of tumors with more than 1.5-fold higher expression than the highest-expressing relevant normal tissue, in-house RNAseq) is listed as “I (<19% over-expression = I)”. Further, the “Target coverage for source genes of selected peptides, GC (N = 11)” value in series [1] (gastric cancer, share of tumors with more than 1.5-fold higher expression than the highest-expressing relevant normal tissue, in-house RNAseq) is “I (<19% over-expression = I)”. Besides, the “Target coverage for source genes of selected peptides, HNSCC (N = 10)” value in series [1] (head and neck small cell carcinoma, share of tumors with more than 1.5-fold higher expression than the highest-expressing relevant normal tissue, in-house RNAseq) is “I (<19% over-expression = I)”. Besides, the “Target coverage for source genes of selected peptides, MEL (N = 10)” value in series [1] (melanoma, share of tumors with more than 1.5-fold higher expression than the highest-expressing relevant normal tissue, in-house RNAseq) was “I (<19% over-expression = I)”. For the same substance, in series [1] (non-Hodgkin lymphoma, share of tumors with more than 1.5-fold higher expression than the highest-expressing relevant normal tissue, in-house RNAseq), the “Target coverage for source genes of selected peptides, NHL (N = 10)” value is reported as “I (<19% over-expression = I)”. In series [1] (prostate cancer and benign prostate hyperplasia, share of tumors with more than 1.5-fold higher expression than the highest-expressing relevant normal tissue, in-house RNAseq), the “Target coverage for source genes of selected peptides, PCA (n = 10)” value is recorded as “I (<19% over-expression = I)”. Also, in series [1] (urinary bladder cancer, share of tumors with more than 1.5-fold higher expression than the highest-expressing relevant normal tissue, in-house RNAseq), the “Target coverage for source genes of selected peptides, UBC (N = 10)” value is “I (<19% over-expression = I)”. Besides, the “Target coverage for source genes of selected peptides, UTC (N = 10)” value in series [1] (uterine cancer, share of tumors with more than 1.5-fold higher expression than the highest-expressing relevant normal tissue, in-house RNAseq) was “I (<19% over-expression = I)”. Besides, the ENTITIES entry in series [2] was “NSCLC, GC, GB”. Further, in series [3] (Adrenocortical carcinoma), the “Target coverage, over-expression category of source gene, ACC (N = 79)” value was “C (>=5% of tumors above the cutoff, but <20%)”. In series [3], the “Target coverage, over-expression category of source gene, BLCA (N = 408)” value was “B (>=20% of tumors above the cutoff, but <50%)”; the “Target coverage, over-expression category of source gene, CESC (N = 307)” value was “A (>=50% of tumors above the cutoff)”; the “Target coverage, over-expression category of source gene, HNSC (N = 521)” value is recorded as “B (>=20% of tumors above the cutoff, but <50%)”. Also, the “Target coverage, over-expression category of source gene, CHOL (N = 36)” value in series [3] (Cholangiocarcinoma) is on record as “C (>=5% of tumors above the cutoff, but <20%)”. The “Target coverage, over-expression category of source gene, DLBC (N = 48)” value in series [3] (Lymphoid neoplasm diffuse large B-cell lymphoma) was “B (>=20% of tumors above the cutoff, but <50%)”. Moreover, in series [3] (Mesothelioma), the “Target coverage, over-expression category of source gene, MESO (N = 87)” value is recorded as “B (>=20% of tumors above the cutoff, but <50%)”.

Consider “125: peptide found in PRKDC (gene looked up) (VFSRDFGLLVF; listed as Homo sapiens) [compound 125]”, for which the “Target coverage, over-expression of source gene, AML” value in series [1] (over-expression = more than 1.5-fold higher expression on tumor vs highest-expressing relevant normal tissue) is listed as “I (<19% over-expression = I)”. In addition, in series [1] (setting [5]), the “Target coverage, over-expression of source gene, BRCA” value is “III (50-69% = III)”; the “Target coverage, over-expression of source gene, CLL” value is given as “I (<19% over-expression = I)”; the “Target coverage, over-expression of source gene, CRC” value is reported as “II (20-49% = II)”; the “Target coverage, over-expression of source gene, GB” value was “III (50-69% = III)”. In series [1] (setting [5]), the “Target coverage, over-expression of source gene, HCC” value was “I (<19% over-expression = I)”; the “Target coverage, over-expression of source gene, OC” value was “III (50-69% = III)”; the “Target coverage, over-expression of source gene, OSCAR” value is “II (20-49% = II)”; the “Target coverage, over-expression of source gene, PC” value is on record as “I (<19% over-expression = I)”. Also, in series [1] (setting [5]), the “Target coverage, over-expression of source gene, RCC” value is listed as “I (<19% over-expression = I)”; the “Target coverage, over-expression of source gene, SCLC” value was “IV (>70% = IV)”; the “Target coverage, over-expression of source gene, pNSCLC” value was “III (50-69% = III)”. Moreover, in series [2], the ENTITIES result is “GC, HCC, NSCLC”. Besides, in series [3], the “Target coverage, over-expression category of source gene, BLCA (N = 408)” value is given as “C (>=5% of tumors above the cutoff, but <20%)”; the “Target coverage, over-expression category of source gene, CESC (N = 307)” value is given as “C (>=5% of tumors above the cutoff, but <20%)”; the “Target coverage, over-expression category of source gene, HNSC (N = 521)” value is given as “B (>=20% of tumors above the cutoff, but <50%)”.

Turning to “182: peptide found in PKD2L1 (gene looked up) (AYAQLGYLLF; listed as Homo sapiens) [compound 182]”, in series [1] (setting [4]), the “Target coverage, over-expression of source gene, AML” value was “I (<19% over-expression = I)”; the “Target coverage, over-expression of source gene, BRCA” value is given as “I (<19% over-expression = I)”; the “Target coverage, over-expression of source gene, CLL” value is recorded as “I (<19% over-expression = I)”; the “Target coverage, over-expression of source gene, CRC” value is recorded as “I (<19% over-expression = I)”. In addition, in series [1] (setting [4]), the “Target coverage, over-expression of source gene, GB” value was “I (<19% over-expression = I)”; the “Target coverage, over-expression of source gene, HCC” value is “I (<19% over-expression = I)”; the “Target coverage, over-expression of source gene, OC” value is “I (<19% over-expression = I)”; the “Target coverage, over-expression of source gene, OSCAR” value was “I (<19% over-expression = I)”. In addition, in series [1] (setting [4]), the “Target coverage, over-expression of source gene, PC” value is reported as “I (<19% over-expression = I)”; the “Target coverage, over-expression of source gene, RCC” value is reported as “I (<19% over-expression = I)”; the “Target coverage, over-expression of source gene, SCLC” value was “II (20-49% = II)”; the “Target coverage, over-expression of source gene, pNSCLC” value is reported as “I (<19% over-expression = I)”. In series [2], the ENTITIES entry was “NSCLC”. Besides, in series [3] (Kidney renal papillary cell carcinoma), the “Target coverage, over-expression category of source gene, KIRP (N = 291)” value is recorded as “C (>=5% of tumors above the cutoff, but <20%)”.

The values are drawn from patent US10159726B2, “Peptides, combination of peptides and scaffolds for use in immunotherapeutic treatment of various cancers” (Immatics Biotechnologies GmbH, priority 2015, dated 2018).
